Common to all, as to assay: log2 fold change, soluble protein after heating vs DMSO (PISA); higher = thermal stabilisation; K562 cells, 10 uM, 30 min; active = over 0.2 and 3.5 SD of the protein, either way, in both replicates (recomputed)
Compound in assay [1]: CC[C@@H]1C(=O)N(C)c2cnc(Nc3ccc(C(=O)NC4CCN(C)CC4)cc3OC)nc2N1C1CCCC1
The method, boiled down: (§1)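 Quantification of soluble protein used TMTpro 16plex LC-MS/MS, with channel sums equalised. Samples were the supernatant after 21,000xg for 90 min of pooled aliquots from K562 cells (2×10^6 cells/mL) treated with 10 μM compound for 30 min, heated for 3 min over 48°C-58°C, and extracted in PBS with 0.5% NP-40 at 4°C. Values, from duplicates, describe thermal stability against control samples on a log2 fold-change scale.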

Sequences of proteins named here, by UniProt entry; tags and fusion partners are left off. A change or cut given only in a name is not applied to a line headed by its entry.
UniProt O94901, whole entry, looked up: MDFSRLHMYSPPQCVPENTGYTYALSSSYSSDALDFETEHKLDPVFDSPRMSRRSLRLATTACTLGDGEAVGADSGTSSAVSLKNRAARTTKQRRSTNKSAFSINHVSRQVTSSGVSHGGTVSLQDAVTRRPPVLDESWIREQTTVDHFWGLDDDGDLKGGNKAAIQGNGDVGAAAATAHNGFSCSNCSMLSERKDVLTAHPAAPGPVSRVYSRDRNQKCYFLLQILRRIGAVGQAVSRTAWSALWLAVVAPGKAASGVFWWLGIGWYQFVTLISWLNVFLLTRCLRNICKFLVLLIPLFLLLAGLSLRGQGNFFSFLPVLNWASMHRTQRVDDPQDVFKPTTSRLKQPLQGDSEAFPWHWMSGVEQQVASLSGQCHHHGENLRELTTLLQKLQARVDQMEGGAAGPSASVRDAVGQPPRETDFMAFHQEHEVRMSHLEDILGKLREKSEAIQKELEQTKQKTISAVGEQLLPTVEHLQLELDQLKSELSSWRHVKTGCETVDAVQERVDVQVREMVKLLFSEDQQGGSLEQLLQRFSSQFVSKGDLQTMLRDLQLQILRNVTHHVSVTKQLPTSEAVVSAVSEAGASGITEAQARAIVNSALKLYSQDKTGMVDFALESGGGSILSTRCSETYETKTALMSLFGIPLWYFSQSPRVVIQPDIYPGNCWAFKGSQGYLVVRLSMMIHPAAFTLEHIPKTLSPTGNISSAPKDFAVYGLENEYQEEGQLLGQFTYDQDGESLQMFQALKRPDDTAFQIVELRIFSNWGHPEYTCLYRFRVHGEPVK
UniProt Q13043: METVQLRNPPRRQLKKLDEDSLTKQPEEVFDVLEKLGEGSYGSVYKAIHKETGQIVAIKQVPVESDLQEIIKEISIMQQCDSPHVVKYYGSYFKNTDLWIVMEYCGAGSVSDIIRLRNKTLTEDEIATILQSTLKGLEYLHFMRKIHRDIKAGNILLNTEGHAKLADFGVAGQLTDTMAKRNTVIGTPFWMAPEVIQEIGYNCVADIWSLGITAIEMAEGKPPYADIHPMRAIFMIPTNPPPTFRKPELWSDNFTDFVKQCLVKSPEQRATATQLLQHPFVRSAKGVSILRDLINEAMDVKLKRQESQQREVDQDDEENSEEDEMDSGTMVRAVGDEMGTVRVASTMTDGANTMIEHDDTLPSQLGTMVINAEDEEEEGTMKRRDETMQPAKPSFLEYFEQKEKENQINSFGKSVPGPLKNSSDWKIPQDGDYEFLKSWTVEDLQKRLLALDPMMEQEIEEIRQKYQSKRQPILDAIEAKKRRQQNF
UniProt Q15526: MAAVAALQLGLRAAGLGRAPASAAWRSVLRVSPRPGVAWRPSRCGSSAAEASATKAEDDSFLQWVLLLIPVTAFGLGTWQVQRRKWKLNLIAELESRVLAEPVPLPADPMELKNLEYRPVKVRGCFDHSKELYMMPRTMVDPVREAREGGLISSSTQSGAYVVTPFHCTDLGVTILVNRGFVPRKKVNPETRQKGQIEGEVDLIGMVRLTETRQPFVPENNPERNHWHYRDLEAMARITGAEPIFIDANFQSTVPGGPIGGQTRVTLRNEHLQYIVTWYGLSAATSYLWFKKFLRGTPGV
UniProt O60347: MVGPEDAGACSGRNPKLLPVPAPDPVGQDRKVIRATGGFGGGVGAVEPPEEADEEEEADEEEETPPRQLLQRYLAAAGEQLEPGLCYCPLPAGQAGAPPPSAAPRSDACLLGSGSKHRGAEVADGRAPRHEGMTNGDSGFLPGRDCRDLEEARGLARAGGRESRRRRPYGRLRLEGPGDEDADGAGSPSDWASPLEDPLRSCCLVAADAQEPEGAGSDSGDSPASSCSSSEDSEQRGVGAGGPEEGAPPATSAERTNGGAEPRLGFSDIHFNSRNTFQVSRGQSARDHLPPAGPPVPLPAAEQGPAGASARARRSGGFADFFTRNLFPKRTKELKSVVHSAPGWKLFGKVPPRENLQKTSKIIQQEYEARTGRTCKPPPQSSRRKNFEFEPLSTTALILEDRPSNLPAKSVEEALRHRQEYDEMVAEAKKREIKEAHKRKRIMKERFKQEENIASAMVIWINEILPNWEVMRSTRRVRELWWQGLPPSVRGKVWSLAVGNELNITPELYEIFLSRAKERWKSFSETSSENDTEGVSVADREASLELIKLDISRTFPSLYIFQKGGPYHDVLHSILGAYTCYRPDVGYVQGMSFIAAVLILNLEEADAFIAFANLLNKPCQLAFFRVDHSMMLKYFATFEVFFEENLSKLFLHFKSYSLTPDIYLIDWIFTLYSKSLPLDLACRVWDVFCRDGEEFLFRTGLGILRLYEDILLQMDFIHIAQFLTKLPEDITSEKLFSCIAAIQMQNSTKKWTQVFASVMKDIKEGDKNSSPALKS
UniProt Q92797: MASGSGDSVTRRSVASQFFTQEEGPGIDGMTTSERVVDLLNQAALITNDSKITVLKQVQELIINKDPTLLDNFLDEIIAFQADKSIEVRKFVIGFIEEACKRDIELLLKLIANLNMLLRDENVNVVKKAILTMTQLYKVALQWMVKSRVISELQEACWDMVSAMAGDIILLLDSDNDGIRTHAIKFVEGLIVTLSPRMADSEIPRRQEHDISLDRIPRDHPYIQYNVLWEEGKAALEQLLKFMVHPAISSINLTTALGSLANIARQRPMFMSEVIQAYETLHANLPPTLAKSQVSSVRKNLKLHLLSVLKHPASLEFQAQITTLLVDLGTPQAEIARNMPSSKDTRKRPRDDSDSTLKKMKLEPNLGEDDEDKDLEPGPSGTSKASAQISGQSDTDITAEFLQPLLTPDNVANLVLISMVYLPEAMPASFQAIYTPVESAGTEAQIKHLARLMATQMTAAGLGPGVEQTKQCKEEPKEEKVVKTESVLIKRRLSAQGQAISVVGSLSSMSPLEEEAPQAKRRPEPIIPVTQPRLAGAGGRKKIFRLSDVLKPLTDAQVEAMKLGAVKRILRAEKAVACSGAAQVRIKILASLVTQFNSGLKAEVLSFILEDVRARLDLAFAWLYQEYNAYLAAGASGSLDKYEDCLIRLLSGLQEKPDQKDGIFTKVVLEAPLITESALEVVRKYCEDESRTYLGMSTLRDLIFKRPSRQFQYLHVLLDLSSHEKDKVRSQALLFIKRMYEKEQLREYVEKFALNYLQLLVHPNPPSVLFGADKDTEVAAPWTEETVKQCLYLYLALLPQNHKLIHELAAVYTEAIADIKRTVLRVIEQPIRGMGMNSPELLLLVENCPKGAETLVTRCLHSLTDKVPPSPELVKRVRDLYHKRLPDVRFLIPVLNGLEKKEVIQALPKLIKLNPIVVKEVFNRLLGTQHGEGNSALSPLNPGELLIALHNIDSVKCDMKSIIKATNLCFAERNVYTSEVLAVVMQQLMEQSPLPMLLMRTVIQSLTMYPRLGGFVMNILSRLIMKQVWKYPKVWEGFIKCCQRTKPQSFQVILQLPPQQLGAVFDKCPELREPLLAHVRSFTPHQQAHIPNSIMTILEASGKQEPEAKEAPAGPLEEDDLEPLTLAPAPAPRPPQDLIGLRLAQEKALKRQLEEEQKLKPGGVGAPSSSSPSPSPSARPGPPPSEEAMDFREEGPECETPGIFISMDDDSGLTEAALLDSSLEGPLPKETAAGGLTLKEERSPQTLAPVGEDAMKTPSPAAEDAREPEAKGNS
UniProt Q9H2K8: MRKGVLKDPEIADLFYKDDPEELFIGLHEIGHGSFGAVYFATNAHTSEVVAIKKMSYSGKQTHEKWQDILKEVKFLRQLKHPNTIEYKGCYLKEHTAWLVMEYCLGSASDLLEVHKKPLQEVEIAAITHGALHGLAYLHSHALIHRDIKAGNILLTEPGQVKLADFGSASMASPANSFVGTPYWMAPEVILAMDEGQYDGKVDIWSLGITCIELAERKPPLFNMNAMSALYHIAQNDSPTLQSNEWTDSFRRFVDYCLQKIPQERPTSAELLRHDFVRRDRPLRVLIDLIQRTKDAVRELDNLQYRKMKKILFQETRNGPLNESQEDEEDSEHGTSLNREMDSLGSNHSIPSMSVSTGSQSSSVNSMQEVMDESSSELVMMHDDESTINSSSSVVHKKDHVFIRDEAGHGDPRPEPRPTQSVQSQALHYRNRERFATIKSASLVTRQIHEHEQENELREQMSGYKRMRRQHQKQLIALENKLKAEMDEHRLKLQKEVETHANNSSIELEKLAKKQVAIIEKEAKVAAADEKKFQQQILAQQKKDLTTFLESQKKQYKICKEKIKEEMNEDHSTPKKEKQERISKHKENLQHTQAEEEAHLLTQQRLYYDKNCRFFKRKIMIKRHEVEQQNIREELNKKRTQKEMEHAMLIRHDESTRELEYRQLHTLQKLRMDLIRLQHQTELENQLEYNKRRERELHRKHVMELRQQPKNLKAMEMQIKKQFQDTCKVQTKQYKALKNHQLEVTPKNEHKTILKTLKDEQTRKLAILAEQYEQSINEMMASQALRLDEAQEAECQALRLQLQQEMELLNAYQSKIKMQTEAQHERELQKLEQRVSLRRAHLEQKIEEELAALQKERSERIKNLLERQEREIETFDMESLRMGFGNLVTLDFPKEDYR
UniProt P63165, whole entry, looked up: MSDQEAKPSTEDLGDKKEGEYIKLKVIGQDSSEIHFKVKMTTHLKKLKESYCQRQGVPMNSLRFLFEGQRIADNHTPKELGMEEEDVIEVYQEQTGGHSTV
UniProt P61956, whole entry, looked up: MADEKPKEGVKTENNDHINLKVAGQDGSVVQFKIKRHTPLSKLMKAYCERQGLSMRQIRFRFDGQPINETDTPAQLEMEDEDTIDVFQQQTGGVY
UniProt P51687: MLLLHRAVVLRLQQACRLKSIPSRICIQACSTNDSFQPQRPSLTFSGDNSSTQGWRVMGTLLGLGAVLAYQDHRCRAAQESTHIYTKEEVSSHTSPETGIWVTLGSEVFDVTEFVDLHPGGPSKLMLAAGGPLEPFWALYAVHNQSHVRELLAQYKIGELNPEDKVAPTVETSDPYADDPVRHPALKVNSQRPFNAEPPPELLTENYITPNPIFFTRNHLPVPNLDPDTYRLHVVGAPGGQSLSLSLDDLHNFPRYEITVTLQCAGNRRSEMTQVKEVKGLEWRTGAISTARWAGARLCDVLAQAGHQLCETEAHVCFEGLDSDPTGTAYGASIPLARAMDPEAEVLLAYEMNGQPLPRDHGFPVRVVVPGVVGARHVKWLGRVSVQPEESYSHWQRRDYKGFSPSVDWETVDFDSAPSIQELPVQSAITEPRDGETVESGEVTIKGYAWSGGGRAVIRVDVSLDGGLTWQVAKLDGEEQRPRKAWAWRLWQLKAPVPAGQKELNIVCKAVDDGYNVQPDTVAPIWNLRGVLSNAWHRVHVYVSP
UniProt Q9UL54: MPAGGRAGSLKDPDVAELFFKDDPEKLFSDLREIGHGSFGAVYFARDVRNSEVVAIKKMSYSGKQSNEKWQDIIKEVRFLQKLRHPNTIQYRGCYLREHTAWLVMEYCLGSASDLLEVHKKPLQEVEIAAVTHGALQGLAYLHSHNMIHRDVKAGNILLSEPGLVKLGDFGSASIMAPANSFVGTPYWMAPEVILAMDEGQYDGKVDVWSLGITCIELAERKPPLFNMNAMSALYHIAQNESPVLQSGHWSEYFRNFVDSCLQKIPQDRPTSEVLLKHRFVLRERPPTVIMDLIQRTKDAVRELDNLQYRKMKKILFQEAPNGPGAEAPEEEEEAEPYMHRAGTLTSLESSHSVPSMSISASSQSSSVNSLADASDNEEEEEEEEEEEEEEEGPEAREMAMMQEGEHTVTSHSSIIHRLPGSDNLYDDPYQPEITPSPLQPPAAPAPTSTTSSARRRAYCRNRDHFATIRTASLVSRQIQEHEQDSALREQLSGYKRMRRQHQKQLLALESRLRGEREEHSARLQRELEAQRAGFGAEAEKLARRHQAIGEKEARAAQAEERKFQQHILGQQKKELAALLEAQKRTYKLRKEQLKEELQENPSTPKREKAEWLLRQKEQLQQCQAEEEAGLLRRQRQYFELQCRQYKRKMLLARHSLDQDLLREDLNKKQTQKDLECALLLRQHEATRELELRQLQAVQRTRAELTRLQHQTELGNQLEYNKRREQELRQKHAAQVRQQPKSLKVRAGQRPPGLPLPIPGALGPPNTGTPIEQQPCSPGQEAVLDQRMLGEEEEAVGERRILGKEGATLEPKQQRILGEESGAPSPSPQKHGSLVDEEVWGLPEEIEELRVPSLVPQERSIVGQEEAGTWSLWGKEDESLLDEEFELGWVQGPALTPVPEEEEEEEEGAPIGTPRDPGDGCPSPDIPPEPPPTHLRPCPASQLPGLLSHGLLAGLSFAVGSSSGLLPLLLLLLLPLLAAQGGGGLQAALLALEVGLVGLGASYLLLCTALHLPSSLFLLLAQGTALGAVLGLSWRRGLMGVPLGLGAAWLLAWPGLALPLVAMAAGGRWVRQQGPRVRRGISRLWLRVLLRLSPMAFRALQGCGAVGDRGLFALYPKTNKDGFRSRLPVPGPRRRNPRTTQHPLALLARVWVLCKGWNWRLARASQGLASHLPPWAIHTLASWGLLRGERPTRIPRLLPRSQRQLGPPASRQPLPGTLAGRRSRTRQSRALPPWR

Compound in a further assay: CC[C@@H]1C(=O)N(C)c2cnc(Nc3ccc(C(=O)N[C@H]4CC[C@H](N5CCN(CC6CC6)CC5)CC4)cc3OC)nc2N1C(C)C [volasertib]
The method, boiled down: as §1

Compound in assay [2]: CC[C@H](C)N1C=C(C2=C(C=C(C=C21)C3=CN=C(C=C3)N4CCNCC4)C(=O)NCC5=C(C=C(NC5=O)C)C)C
The method, boiled down:
as §1

Compound in a further assay: CC[C@H](C)[C@@H](C(=O)N[C@@H]([C@@H](C)O)C(=O)N[C@@H](CC(C)C)C(=O)[C@]1(CO1)C)NC(=O)[C@H]([C@@H](C)CC)N(C)C(=O)C [epoxomicin]
The method, boiled down: as §1

Compound in assay [3]: CCn1cc(-c2ccnc3[nH]c(-c4cccc(CN(C)C)c4)cc23)c(-c2ccc(NC(=O)N(C)C)cc2)n1
The method, boiled down: as §1

Compound in assay [4]: CN(C)CC(=O)Nc1ccc2[nH]c(=O)c3ccccc3c2c1
The method, boiled down:
as §1

Compound in assay [5]: CN1C2=C(C3=C1C(=O)N(N=C3)CC4=CC(=CC=C4)N)SC(=C2)S(=O)C
The method, boiled down: as §1

Compound in assay [6]: CN1CCC(CNc2ccc3ncc(-c4cccc(OC(F)(F)F)c4)n3n2)CC1
The method, boiled down:
as §1

Compound in assay [7]: CCn1c(C(=O)N(C2CC2)C2CC2)cc2c3c(ncn3C)c(Nc3cc(C)n(C)n3)nc21
The method, boiled down: as §1

Compound in another assay: CN(CCOC1=CC=C(C=C1)C[C@H]2C(=O)NC(=O)S2)C3=CC=CC=N3 (racemic) [rosiglitazone]
The method, boiled down: as §1

Here are results for 13 targets from the supplement of paper PMC10849652.

This is one part of the list.

In the case of SUN1 isoform 9 (UniProt O94901), the log2 fold change is inactive: 0.13 in assay [1]; inactive: 0.018 with volasertib; inactive: -0.065 in [2]; inactive: -0.021 with epoxomicin; inactive: 0.135 in [3]; inactive: 0.002 in [4]. In addition, the log2 fold change in assay [5] is inactive: 0.037; in assay [6], inactive: -0.111.

As for STK4 (UniProt Q13043), the log2 fold change in [1] was inactive: 0.024; with volasertib it was inactive: 0.006; in [2], inactive: 0.014; with epoxomicin, inactive: 0.033; in assay [3] it was inactive: -0.041; in [4], inactive: 0.013. For the same target, the log2 fold change in assay [5] was inactive: 0.004; in assay [6], inactive: -0.061.

For the target TAMM41 isoform 3 (UniProt Q96BW9), the log2 fold change was inactive: -0.209 in [1]; active: -0.312 with volasertib; inactive: -0.004 in assay [2]; inactive: 0.02 with epoxomicin; inactive: 0.022 in [3]; inactive: 0.013 in [4]. In addition, the log2 fold change in assay [5] is inactive: -0.052; in [6] it was active: -0.362.

For SURF1 (UniProt Q15526), the log2 fold change in assay [1] was inactive: -0.085; with volasertib, active: -0.274; in assay [2], inactive: -0.055; in the assay with epoxomicin, inactive: 0.012; in assay [3], inactive: -0.059; in assay [4], inactive: 0.013. For the same target, the log2 fold change in assay [5] was inactive: -0.016; in assay [6], active: -0.311.

Regarding TBC1D12 (UniProt O60347), the log2 fold change in assay [1] is inactive: -0.148; with volasertib, inactive: -0.274; in the assay with epoxomicin, inactive: 0.032; in assay [7], inactive: -0.043; in [4], inactive: 0.066.

In the case of TAGLN (UniProt Q01995), the log2 fold change in assay [1] was inactive: 0.08; in the assay with volasertib, inactive: -0.06; in [7], inactive: -0.899; in [3] it was inactive: 0.358; with rosiglitazone, inactive: 0.115; in [5], inactive: 0.737. Besides, the log2 fold change in assay [6] is inactive: 0.211.

As to SYMPK (UniProt Q92797), the log2 fold change is inactive: -0.341 in assay [1]; active: -0.5 with volasertib; inactive: -0.289 in [2]; inactive: 0.073 in the assay with epoxomicin; inactive: -0.026 in assay [3]; inactive: 0.123 in assay [4]. The log2 fold change in [5] is inactive: 0.076; in assay [6], inactive: -0.141.

In the case of TAOK3 (UniProt Q9H2K8), the log2 fold change in assay [1] was inactive: -0.005; with volasertib, inactive: -0.083; in assay [2], inactive: 0.058; in the assay with epoxomicin, inactive: 0.007; in assay [3] it was inactive: -0.019; in assay [4], inactive: 0.059. For the same target, the values for the log2 fold change in assay [5] and in assay [6] were inactive: -0.067 and inactive: -0.059, respectively.

Consider SUMO1 (UniProt P63165), for which the log2 fold change in assay [1] is inactive: 0.034; with volasertib it was inactive: -0.035; in assay [2], inactive: -0.046; in the assay with epoxomicin, inactive: -0.011; in assay [3] it was inactive: 0.015; in [4], inactive: 0.021. Also, the log2 fold change in assay [5] was inactive: 0.038; in assay [6], inactive: 0.007.

As for SUMO2 (UniProt P61956), the log2 fold change is inactive: -0.019 in assay [1]; inactive: 0.163 with volasertib; inactive: -0.101 in assay [2]; inactive: 0.04 in [7]; inactive: 0.018 in assay [3]; inactive: -0.113 in assay [4]. Besides, the log2 fold change is inactive: -0.104 in the assay with rosiglitazone, inactive: 0.086 in [5] and inactive: -0.025 in [6].

As to SUOX (UniProt P51687), the log2 fold change was inactive: 0.003 in [1]; inactive: -0.04 in the assay with volasertib; inactive: -0.02 in [2]; inactive: 0.013 in the assay with epoxomicin; inactive: 0 in [3]; inactive: 0.005 in assay [4]. For the same target, the figures for the log2 fold change in [5] and in assay [6] were inactive: -0.07 and active: -0.31, respectively.

In the case of TAOK2 (UniProt Q9UL54), the log2 fold change in [1] is inactive: 0.024; with volasertib, inactive: -0.061; in assay [2] it was inactive: -0.006; in the assay with epoxomicin, inactive: -0.01; in assay [3], inactive: -0.076; in assay [6] it was inactive: 0.01.

On to TAOK1 (UniProt Q7L7X3), for which the log2 fold change was inactive: 0.03 in assay [1]; inactive: -0.019 in the assay with volasertib; inactive: 0.029 in [2]; inactive: -0.02 with epoxomicin; inactive: -0.024 in assay [3]; inactive: 0 in assay [4]. Besides, the log2 fold change in [5] is inactive: 0.017; in [6] it was active: -0.262.
